PubChem BioAssay AID1053208 – Peter MacCallum Cancer Centre, 2014
Shown is a random part of about 17,000 reagents tested. 788 of them (4.7%) were called active. 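Calls rest on z-score classes alone; an extra cut-off of viability at most 70% of control was not applied to them.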 Unmarked entries are inactive. A reagent listed more than once was tested more than once; the source does not tell the runs apart. Not all columns of the deposit are shown. Reagent sequences are not shown.

Purpose: 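Genes whose silencing cuts survival of bone tumour cells only with doxorubicin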 (primary screen)
System: mouse osteosarcoma cells, early-passage culture from an engineered mouse model of fibroblastic bone tumour
Knock-down reagent: siRNA pool against mouse genes, 40 nM
Timing: about 120 h (48 h before drug, then 72 h with drug)
Treatment: doxorubicin 100 nM for 72 h, roughly 30-40% inhibitory dose
Detection: 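Luminescent ATP signal taken as viability with or without 100 nM doxorubicin for 72 h; mean of two wells set against non-targeting siRNA and turned into robust z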
Reading the numbers: viability z-score with doxorubicin: higher = more viable cells under doxorubicin; viability z-score without drug: higher = more viable cells with knock-down alone
Hit rule: 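a pool counts as active when its viability z-score with doxorubicin is -2 or below and its z-score without drug lies between -2 and 2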

Dppa4 (GeneID 73693) [SID152319856] | combined z-score class: no change with or without drug; viability z-score with doxorubicin: 0; viability z-score without drug: 0.17
Mlph (GeneID 171531) [SID152284605] | combined z-score class: no change with or without drug; viability z-score with doxorubicin: -1.24; viability z-score without drug: -1.52
Lrrc39 (GeneID 109245) [SID152337629] | combined z-score class: no change with or without drug; viability z-score with doxorubicin: -1.12; viability z-score without drug: 0.17
Slc23a1 (GeneID 20522) [SID152336077] | combined z-score class: no change with or without drug; viability z-score with doxorubicin: -0.67; viability z-score without drug: -0.84
Rab40b (GeneID 217371) [SID152333420] | combined z-score class: high cell count without drug only; viability z-score with doxorubicin: 1.01; viability z-score without drug: 2.87
Chek1 (GeneID 12649) [SID152340257] | combined z-score class: no change with or without drug; viability z-score with doxorubicin: -0.67; viability z-score without drug: -1.52
Ddx39b (GeneID 53817) [SID152272790] | combined z-score class: no change with or without drug; viability z-score with doxorubicin: 0.45; viability z-score without drug: 0.17
Ippk (GeneID 75678) [SID152261417] | combined z-score class: no change with or without drug; viability z-score with doxorubicin: -0.22; viability z-score without drug: -0.51
Ippk (GeneID 75678) [SID152261417] | combined z-score class: no change with or without drug; viability z-score with doxorubicin: -0.34; viability z-score without drug: -0.67
Josd1 (GeneID 74158) [SID152261930] | combined z-score class: no change with or without drug; viability z-score with doxorubicin: -1.57; viability z-score without drug: 0
Or10ak11 (GeneID 258265) [SID152278697] | combined z-score class: no change with or without drug; viability z-score with doxorubicin: -0.22; viability z-score without drug: 0.51
Zkscan1 (GeneID 74570) [SID152286644] | combined z-score class: no change with or without drug; viability z-score with doxorubicin: -0.45; viability z-score without drug: -0.17
Cdhr5 (GeneID 72040) [SID152318288] | combined z-score class: no change with or without drug; viability z-score with doxorubicin: 0; viability z-score without drug: -0.84
Naa25 (GeneID 231713) [SID152301114] | combined z-score class: low cell count without drug only; viability z-score with doxorubicin: -0.11; viability z-score without drug: -2.19
Or6d14 (GeneID 258754) [SID152297672] | combined z-score class: no change with or without drug; viability z-score with doxorubicin: -0.67; viability z-score without drug: 0.51
Niban1 (GeneID 63913) [SID152265873] | combined z-score class: no change with or without drug; viability z-score with doxorubicin: 0; viability z-score without drug: 0.84
Slc9a4 (GeneID 110895) [SID152303826] | combined z-score class: no change with or without drug; viability z-score with doxorubicin: 0.9; viability z-score without drug: -0.34
Pdap1 (GeneID 231887) [SID152337978] | combined z-score class: no change with or without drug; viability z-score with doxorubicin: -1.35; viability z-score without drug: -0.84

Laid out differently: entries from further up
target	PubChem SID	combined z-score class	viability z-score with doxorubicin	viability z-score without drug
Chek1 (GeneID 12649)	SID152340257	no change with or without drug	-0.67	-1.52
Ddx39b (GeneID 53817)	SID152272790	no change with or without drug	0.45	0.17
Ippk (GeneID 75678)	SID152261417	no change with or without drug	-0.22	-0.51

More results follow.
Rcc1l (GeneID 94254) [SID152342438] | combined z-score class: no change with or without drug; viability z-score with doxorubicin: 1.8; viability z-score without drug: 1.85
Tef (GeneID 21685) [SID152294493] | combined z-score class: low cell count with doxorubicin only (active); viability z-score with doxorubicin: -2.14; viability z-score without drug: -1.35
Chka (GeneID 12660) [SID152271483] | combined z-score class: no change with or without drug; viability z-score with doxorubicin: -0.11; viability z-score without drug: 0.34
Crot (GeneID 74114) [SID152315514] | combined z-score class: no change with or without drug; viability z-score with doxorubicin: -0.67; viability z-score without drug: -1.18
Cdkn1a (GeneID 12575) [SID152267028] | combined z-score class: no change with or without drug; viability z-score with doxorubicin: 0.34; viability z-score without drug: -0.51
Incenp (GeneID 16319) [SID152264927] | combined z-score class: low cell count without drug only; viability z-score with doxorubicin: -0.56; viability z-score without drug: -2.02
Cpb2 (GeneID 56373) [SID152339914] | combined z-score class: no change with or without drug; viability z-score with doxorubicin: 0.67; viability z-score without drug: 0.17
Prdm5 (GeneID 70779) [SID152288339] | combined z-score class: high cell count with doxorubicin only; viability z-score with doxorubicin: 2.14; viability z-score without drug: 1.52
Akap8 (GeneID 56399) [SID152328701] | combined z-score class: no change with or without drug; viability z-score with doxorubicin: 1.46; viability z-score without drug: -0.51
Klf11 (GeneID 194655) [SID152321035] | combined z-score class: no change with or without drug; viability z-score with doxorubicin: 1.24; viability z-score without drug: 1.52
Prpf38a (GeneID 230596) [SID152314091] | combined z-score class: no change with or without drug; viability z-score with doxorubicin: -1.12; viability z-score without drug: -1.52
Zmym6 (GeneID 100177) [SID152293320] | combined z-score class: no change with or without drug; viability z-score with doxorubicin: 0.45; viability z-score without drug: 0.84
4930583K01Rik (GeneID 67745) [SID152321562] | combined z-score class: no change with or without drug; viability z-score with doxorubicin: -1.69; viability z-score without drug: -1.69
Adamts19 (GeneID 240322) [SID152337545] | combined z-score class: no change with or without drug; viability z-score with doxorubicin: -0.9; viability z-score without drug: -0.17
Prkg1 (GeneID 19091) [SID152300697] | combined z-score class: no change with or without drug; viability z-score with doxorubicin: 1.57; viability z-score without drug: -0.51
Abcg2 (GeneID 26357) [SID152268780] | combined z-score class: no change with or without drug; viability z-score with doxorubicin: -0.45; viability z-score without drug: 0.51
Galnt5 (GeneID 241391) [SID152322326] | combined z-score class: no change with or without drug; viability z-score with doxorubicin: -0.45; viability z-score without drug: -0.17
Gsr (GeneID 14782) [SID152307372] | combined z-score class: no change with or without drug; viability z-score with doxorubicin: -0.45; viability z-score without drug: -1.01
